Data as given in PubChem BioAssay AID602203 (INSERM, 2012)
Here is one part, drawn at random, of 999 reagents tested. Of all reagents, 85 (8.5%) got an active call. 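Unclear how single-siRNA scores of -1, 0 or +1 give the printed -4 to 4 range; calls lie near -3 or 3 and beyond.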 A number with no mark means an inactive call. No sequences are given here. The record does not give: the amount of reagent, the time to read-out, the dose of the treatment.

Assay: 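Confirming genes that raise or lower cisplatin-induced death in A549 cells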 (follow-up of hits)
Cell system: human A549 lung cancer cells
Knock-down reagent: siRNA pair against human genes
Conditions: cisplatin at a dose killing half of control-siRNA cells, given 48 h after transfection
Detection: 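Two siRNAs per gene scored +1 protective, -1 sensitizing, 0 if toxic by LDH or growth-reducing by WST-1; cisplatin given 48 h later at 50% control kill; scores summed, mean death shift versus control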
Scale: summed siRNA score for cisplatin death: higher = more siRNAs reduced cisplatin-induced cell death; change in cisplatin death versus control: higher = fewer cells died than in control
Hit rule: In these data the active calls have summed siRNA score for cisplatin death at about -3 or lower, or at about 3 or higher

gene | summed siRNA score for cisplatin death | change in cisplatin death versus control (percentage points)
CFDP1 | 1 | –
NTNG1 | -1 | –
TMEM234 | -3 (active) | -7.97
IL1R2 | 1 | –
LINC01940 | 1 | –
ABCB9 | -2 | –
ERFL | -2 | –
ANKRD20A19P | 0 | –
RAB3C | -3 (active) | -8.4
P4HA2 | -2 | –
MAT2A | -3 (active) | -13.5
EXOC7 | 0 | –
TSPO | 2 | –
STX12 | 2 | –
GRM1 | -1 | –
ATL1 | -1 | –
CDK15 | 0 | –
ZNF10 | -2 | –
DPF1 | 1 | –
RASSF1 | -1 | –
PDK4 | -1 | –
APOA1 | 0 | –
COMMD9 | 3 (active) | 12.6
LOC440967 | 1 | –
TAB1 | 0 | –
FKBP4P2 | -3 (active) | -11.7
LOC390729 | 0 | –
LOC441756 | 2 | –
ITK | 1 | –
LOC442126 | 3 (active) | 8.57
CPA2 | 1 | –
CLCN3 | -1 | –
RAP1GAP | 0 | –
CD2AP | -1 | –
TPTEP2 | 0 | –
NUP153 | 0 | –
SIX2 | 0 | –
LAMB4 | 1 | –
LINC00336 | 1 | –
RBMS2 | -1 | –
LOC401937 | -1 | –
KRT1 | 0 | –
MMP11 | 0 | –
CAMK4 | 1 | –
POMC | 0 | –
LOC440442 | 1 | –
CRLF3 | 0 | –
OAF | 1 | –
TRIP4 | 3 (active) | 19
UNKL | 1 | –
PSMC5 | 3 (active) | 16.3
AIF1 | -2 | –
LOC441470 | 1 | –

The list goes on (5 carried over from the part before).
gene | summed siRNA score for cisplatin death | change in cisplatin death versus control (percentage points)
TRIP4 | 3 (active) | 19
UNKL | 1 | –
PSMC5 | 3 (active) | 16.3
AIF1 | -2 | –
LOC441470 | 1 | –
LARGE1 | 0 | –
GATM | 0 | –
ATF4 | 1 | –
LOC401581 | 0 | –
LOC440202 | 0 | –
CYP39A1 | 1 | –
PLCXD3 | 1 | –
APEH | 0 | –
IFT57 | 0 | –
BAZ2B | -1 | –
CENPX | 2 | –
CMYA5 | 2 | –
LONRF2 | -1 | –
NCOA3 | -3 (active) | -11.2
H2AC21 | 0 | –
AAR2 | -2 | –
TSPAN33 | -1 | –
P2RY14 | 1 | –
UBE3C | -1 | –
SHROOM2 | 2 | –
GPR4 | 0 | –
XYLB | -1 | –
NR3C2 | 0 | –
UBR1 | -1 | –
TIMM8B | -1 | –
COX7A2 | 1 | –
UPRT | 1 | –
GABRB2 | 1 | –
CLIC1 | -4 (active) | -9
ANKRD23 | -2 | –
DAPK2 | 2 | –
IKBKE | 0 | –
HS6ST1 | -1 | –
CLDN3 | -2 | –
SRPRB | 1 | –
GIT1 | 1 | –
LOC390667 | -1 | –
ASB15 | 0 | –
LOC442728 | 1 | –
LOC390913 | 2 | –
LOC200213 | 1 | –
LHX1 | 0 | –
GOLGA2 | -2 | –
LOC440360 | 0 | –
DDI1 | -1 | –
CADM2 | 0 | –
NIT2 | 0 | –
MKNK1 | 0 | –
KIF3A | 0 | –
RXFP2 | 0 | –
TP53TG1 | 2 | –
IL21 | -2 | –
EEF2 | 3 (active) | 6.32
GDF5 | -1 | –
